Results deposited as PubChem BioAssay AID1671195 (Yale University, 2021)
This is a random part of about 22,000 reagents tested. Over the whole deposit, about 1,510 (6.9%) were called active. 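Active includes knockdowns raising or lowering LDL uptake; positive z-scores mean more uptake, negative mean less.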

Test: 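Regulators of LDL receptor activity judged by labelled LDL uptake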 (primary screen)
Cells: human Huh7 hepatoma cells
Knock-down reagent: siRNA pool against human genes, 18 nM
Duration: about 2 to 2.5 days of knockdown, then 8 h LDL uptake
Treatment: DiI-labelled LDL at 30 µg/ml for 8 h, in lipoprotein-deficient serum medium
Read-out: 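Per-cell DiI-LDL intensity by automated imaging; well means scaled to the plate median and given as a robust z-score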
Scale: robust z-score: higher = more LDL uptake after knockdown
Hit rule: 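a gene counts as active if at least two replicate z-scores exceed ±2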

target gene	robust z-score, replicate 1	robust z-score, replicate 2	robust z-score, replicate 3	outcome
ZNF609 (GeneID 23060)	1.87	-0.848	1.61	inactive
SERTAD3 (GeneID 29946)	2.65	2.33	1.47	active
CASP4 (GeneID 837)	0.72	0.262	-0.0588	inactive
NPHP4 (GeneID 261734)	-1.07	-1.06	-1.02	inactive
TSSK3 (GeneID 81629)	0.497	-0.0326	0.0291	inactive
ARL14EP (GeneID 120534)	-0.542	-0.704	-1.2	inactive
PDK2 (GeneID 5164)	-0.244	-0.506	-0.081	inactive
YIPF7 (GeneID 285525)	-0.594	-0.388	-0.733	inactive
VWA1 (GeneID 64856)	-1.04	-0.905	-0.56	inactive
SLC27A5 (GeneID 10998)	0.199	0.347	-0.902	inactive
LOC440930 (retired record) (GeneID 440930)	-0.219	-0.386	-0.65	inactive
RPL28P4 (GeneID 441726)	-1.14	-1.51	-1.2	inactive
TBL1XR1 (GeneID 79718)	2.15	1.74	1.33	inactive
ALDH1A2 (GeneID 8854)	-1.06	-0.452	-0.724	inactive
SLFN12L (GeneID 100506736)	-0.6	-0.708	-0.525	inactive
LOC285694 (retired record) (GeneID 285694)	0.164	0.291	0.342	inactive
GABPA (GeneID 2551)	1.45	0.663	0.553	inactive
LY6G6D (GeneID 58530)	-1.35	-0.796	-0.761	inactive
MTA3 (GeneID 57504)	-0.291	-0.17	-0.108	inactive
ARFGAP1 (GeneID 55738)	0.00937	-0.426	-0.307	inactive
ZC3H4 (GeneID 23211)	2.01	0.913	1.07	inactive
PNPLA7 (GeneID 375775)	0.271	0.282	0.297	inactive
LACTB (GeneID 114294)	2.95	2.01	2.6	active
PROS1 (GeneID 5627)	0.144	0.0158	0.756	inactive
LSM12 (GeneID 124801)	2.16	2.9	2.64	active
LOC123397 (retired record) (GeneID 123397)	0.398	0.352	-0.704	inactive
LOC440554 (retired record) (GeneID 440554)	1.85	1.43	2.05	inactive
LOC390680 (retired record) (GeneID 390680)	0.173	-0.512	-0.415	inactive
